Assay results from the supplement of paper PMC11732987, “Enantioselective OTUD7B fragment discovery through chemoproteomics screening and high-throughput optimisation” (Communications Chemistry, 2025).
Some of the results follow. The data scatter; read single values as rough.

Chains of the proteins cited; added tags and fusions are not shown. Lines headed by an entry give the natural chain unless they say otherwise; changes in a name come on top. Residues count along the entry.
UniProt Q96KM6: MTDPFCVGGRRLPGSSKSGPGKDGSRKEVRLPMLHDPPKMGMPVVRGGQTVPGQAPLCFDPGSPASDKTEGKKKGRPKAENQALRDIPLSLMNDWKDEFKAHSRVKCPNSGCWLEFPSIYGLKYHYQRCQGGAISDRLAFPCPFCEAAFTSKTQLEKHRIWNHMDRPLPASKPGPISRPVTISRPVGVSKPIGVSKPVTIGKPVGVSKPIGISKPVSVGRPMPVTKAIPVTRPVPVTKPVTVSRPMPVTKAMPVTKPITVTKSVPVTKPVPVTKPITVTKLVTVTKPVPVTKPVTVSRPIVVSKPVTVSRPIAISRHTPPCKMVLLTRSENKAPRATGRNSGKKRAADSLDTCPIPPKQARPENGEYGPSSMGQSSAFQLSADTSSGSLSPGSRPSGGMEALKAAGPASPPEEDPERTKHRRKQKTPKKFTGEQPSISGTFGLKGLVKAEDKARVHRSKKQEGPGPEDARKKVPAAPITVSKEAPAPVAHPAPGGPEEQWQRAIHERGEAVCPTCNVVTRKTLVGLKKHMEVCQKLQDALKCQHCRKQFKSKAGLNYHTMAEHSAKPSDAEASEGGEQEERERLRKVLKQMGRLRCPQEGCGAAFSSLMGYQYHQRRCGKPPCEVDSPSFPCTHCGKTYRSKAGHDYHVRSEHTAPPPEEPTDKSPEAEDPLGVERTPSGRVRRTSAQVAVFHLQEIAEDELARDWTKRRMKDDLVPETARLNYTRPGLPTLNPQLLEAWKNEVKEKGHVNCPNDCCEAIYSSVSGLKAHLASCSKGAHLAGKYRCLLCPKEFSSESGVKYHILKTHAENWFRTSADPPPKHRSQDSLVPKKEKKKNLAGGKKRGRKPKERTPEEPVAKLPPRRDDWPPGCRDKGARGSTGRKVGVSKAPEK
UniProt P59923: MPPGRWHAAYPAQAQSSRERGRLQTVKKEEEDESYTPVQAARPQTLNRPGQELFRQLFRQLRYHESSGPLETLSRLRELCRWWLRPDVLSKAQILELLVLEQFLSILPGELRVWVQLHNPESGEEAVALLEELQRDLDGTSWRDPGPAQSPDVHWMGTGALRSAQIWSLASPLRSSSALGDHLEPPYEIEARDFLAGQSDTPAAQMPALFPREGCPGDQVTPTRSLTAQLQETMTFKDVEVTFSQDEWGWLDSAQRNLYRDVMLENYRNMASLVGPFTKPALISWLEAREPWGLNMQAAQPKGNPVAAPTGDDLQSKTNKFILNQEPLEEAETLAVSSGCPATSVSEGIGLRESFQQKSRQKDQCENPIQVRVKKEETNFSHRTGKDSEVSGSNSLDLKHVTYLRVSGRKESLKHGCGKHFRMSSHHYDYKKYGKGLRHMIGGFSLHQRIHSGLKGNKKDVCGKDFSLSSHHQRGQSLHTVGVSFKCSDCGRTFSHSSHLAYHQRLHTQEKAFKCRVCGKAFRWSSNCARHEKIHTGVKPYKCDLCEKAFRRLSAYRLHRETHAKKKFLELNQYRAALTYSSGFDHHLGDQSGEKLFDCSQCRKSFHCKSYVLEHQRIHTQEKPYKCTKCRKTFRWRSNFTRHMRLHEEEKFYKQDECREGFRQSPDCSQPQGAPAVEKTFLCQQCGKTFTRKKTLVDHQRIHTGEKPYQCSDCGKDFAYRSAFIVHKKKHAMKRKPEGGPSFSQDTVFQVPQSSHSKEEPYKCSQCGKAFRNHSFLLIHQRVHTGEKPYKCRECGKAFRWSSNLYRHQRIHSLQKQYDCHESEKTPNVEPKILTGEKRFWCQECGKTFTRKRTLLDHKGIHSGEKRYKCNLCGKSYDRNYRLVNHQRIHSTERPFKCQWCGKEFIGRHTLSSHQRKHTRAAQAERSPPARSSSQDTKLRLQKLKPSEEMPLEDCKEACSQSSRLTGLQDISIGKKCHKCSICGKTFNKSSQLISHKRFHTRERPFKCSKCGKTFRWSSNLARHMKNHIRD
UniProt Q96H79: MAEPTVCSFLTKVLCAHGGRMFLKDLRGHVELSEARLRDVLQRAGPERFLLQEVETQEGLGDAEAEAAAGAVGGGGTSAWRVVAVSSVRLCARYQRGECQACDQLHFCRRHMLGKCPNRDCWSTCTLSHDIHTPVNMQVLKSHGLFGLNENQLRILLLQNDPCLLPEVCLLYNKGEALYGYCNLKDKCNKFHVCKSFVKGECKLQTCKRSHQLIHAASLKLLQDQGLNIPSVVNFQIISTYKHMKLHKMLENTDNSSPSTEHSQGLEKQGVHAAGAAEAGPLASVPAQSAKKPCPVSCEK
UniProt A7E2V4, 1084-1110: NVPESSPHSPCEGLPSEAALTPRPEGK
UniProt Q5SVZ6: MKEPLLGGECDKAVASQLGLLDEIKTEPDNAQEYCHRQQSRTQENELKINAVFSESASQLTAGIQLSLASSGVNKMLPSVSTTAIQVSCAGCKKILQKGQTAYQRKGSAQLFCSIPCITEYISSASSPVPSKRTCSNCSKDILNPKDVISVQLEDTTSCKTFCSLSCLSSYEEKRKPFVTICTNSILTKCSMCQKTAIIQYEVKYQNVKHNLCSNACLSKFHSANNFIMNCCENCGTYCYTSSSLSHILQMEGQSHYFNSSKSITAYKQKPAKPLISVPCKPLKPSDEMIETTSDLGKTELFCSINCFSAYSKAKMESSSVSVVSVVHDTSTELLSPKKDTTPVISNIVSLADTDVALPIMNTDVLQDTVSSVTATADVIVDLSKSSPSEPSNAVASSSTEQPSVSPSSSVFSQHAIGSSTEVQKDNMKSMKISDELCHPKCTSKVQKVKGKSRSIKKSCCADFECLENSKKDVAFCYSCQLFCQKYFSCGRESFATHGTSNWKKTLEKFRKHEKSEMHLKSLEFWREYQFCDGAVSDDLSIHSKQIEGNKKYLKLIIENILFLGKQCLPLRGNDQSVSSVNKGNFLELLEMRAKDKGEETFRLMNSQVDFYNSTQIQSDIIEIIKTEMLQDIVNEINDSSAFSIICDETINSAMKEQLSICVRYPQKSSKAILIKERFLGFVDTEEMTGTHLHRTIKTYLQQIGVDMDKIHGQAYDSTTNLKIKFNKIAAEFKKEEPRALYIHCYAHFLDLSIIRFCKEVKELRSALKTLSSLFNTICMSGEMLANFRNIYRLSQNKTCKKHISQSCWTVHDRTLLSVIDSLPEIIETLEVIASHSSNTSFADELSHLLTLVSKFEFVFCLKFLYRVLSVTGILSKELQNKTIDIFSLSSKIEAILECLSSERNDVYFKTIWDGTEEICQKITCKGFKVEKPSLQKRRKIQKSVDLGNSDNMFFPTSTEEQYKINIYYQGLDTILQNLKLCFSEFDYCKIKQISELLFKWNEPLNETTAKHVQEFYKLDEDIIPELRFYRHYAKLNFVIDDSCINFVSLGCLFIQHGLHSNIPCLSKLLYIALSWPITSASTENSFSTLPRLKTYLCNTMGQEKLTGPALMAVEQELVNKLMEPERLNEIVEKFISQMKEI
UniProt Q8IYH5, 642-662: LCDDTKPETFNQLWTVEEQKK
UniProt Q7Z3T8: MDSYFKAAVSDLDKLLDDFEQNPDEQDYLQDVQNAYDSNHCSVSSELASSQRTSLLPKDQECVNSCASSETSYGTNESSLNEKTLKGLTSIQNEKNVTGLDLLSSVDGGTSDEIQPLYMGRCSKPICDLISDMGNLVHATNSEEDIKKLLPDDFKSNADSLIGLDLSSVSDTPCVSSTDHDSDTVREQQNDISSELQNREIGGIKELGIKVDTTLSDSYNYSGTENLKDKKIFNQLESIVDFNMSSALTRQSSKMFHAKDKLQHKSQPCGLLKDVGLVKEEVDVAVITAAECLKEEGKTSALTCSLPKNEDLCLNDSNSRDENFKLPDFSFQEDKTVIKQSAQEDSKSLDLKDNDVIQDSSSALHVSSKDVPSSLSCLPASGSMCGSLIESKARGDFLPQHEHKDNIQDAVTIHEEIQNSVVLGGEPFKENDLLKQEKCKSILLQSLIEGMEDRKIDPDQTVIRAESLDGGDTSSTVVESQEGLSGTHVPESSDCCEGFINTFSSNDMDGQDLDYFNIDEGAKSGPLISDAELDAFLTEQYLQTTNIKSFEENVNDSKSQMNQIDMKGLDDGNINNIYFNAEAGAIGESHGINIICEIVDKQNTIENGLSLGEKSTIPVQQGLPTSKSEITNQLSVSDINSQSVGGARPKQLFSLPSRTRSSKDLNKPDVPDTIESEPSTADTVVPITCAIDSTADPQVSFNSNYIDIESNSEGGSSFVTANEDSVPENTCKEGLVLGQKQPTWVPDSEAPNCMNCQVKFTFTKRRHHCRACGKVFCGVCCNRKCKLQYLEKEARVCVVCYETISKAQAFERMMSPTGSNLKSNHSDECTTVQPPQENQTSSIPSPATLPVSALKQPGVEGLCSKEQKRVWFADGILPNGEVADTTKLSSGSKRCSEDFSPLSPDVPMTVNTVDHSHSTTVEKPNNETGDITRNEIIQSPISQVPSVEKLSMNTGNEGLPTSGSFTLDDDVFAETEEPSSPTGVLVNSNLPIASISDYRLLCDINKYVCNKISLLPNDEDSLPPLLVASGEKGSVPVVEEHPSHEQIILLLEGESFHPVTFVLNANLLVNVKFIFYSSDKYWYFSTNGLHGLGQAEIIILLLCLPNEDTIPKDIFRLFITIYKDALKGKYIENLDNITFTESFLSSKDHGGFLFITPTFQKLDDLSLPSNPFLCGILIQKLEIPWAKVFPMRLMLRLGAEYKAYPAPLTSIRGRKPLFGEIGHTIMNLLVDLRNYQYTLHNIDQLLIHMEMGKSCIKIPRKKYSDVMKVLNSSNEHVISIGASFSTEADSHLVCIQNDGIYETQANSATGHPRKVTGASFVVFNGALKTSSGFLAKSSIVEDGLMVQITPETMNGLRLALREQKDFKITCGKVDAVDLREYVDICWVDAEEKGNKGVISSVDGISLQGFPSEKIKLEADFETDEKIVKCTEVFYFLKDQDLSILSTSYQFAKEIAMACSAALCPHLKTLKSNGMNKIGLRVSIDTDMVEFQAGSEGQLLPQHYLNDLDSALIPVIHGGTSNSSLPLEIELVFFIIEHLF
UniProt Q96JP5: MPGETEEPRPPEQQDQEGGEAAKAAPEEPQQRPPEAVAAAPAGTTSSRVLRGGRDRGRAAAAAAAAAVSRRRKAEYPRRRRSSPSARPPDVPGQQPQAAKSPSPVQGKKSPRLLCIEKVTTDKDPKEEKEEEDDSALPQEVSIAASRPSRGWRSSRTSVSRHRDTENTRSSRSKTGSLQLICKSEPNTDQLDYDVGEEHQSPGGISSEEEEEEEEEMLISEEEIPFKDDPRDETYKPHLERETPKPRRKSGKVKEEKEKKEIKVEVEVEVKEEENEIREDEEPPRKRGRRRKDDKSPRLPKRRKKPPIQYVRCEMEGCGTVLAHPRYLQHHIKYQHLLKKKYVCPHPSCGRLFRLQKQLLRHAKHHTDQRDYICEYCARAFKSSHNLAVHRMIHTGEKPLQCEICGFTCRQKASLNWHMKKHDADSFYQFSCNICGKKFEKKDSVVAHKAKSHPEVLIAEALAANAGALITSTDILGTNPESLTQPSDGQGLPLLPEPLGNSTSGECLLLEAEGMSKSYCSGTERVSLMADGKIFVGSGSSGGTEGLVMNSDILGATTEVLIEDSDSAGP
UniProt Q8IWR0: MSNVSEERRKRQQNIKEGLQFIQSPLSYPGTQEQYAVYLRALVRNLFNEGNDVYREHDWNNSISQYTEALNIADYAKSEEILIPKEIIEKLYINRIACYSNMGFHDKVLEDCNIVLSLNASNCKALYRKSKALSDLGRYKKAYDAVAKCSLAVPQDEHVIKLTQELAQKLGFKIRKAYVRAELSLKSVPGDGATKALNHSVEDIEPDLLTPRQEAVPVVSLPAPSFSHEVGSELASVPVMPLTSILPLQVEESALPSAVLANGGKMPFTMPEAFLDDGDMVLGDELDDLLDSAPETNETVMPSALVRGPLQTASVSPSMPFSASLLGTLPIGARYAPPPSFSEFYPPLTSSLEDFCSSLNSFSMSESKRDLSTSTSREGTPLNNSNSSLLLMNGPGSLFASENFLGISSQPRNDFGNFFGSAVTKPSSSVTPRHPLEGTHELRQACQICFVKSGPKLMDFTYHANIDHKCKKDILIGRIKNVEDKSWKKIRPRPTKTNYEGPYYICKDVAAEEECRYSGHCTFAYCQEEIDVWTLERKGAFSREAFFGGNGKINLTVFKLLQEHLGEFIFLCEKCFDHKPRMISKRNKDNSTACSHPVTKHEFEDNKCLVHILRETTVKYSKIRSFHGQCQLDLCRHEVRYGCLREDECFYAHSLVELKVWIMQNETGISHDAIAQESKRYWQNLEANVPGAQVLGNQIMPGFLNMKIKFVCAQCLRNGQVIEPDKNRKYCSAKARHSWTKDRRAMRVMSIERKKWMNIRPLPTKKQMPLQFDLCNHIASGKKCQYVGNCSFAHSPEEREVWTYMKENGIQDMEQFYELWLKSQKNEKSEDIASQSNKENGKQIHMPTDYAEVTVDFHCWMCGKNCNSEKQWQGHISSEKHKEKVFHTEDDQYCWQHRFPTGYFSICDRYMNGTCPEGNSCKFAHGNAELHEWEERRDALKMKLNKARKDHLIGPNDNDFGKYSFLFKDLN
UniProt Q9C0G0, 1228-1247: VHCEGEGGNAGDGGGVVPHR
UniProt Q16600, 120-144: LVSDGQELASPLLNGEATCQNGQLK

compound: ClCC(=O)N[C@@H]1CCCc2ccccc12; assay: log2 mean competition ratio of IA-DTB cysteine labelling (DMSO/compound) (log2 ratio); higher = stronger cysteine engagement by compound; details: 50 µM; treatment time: 4 h; cell line lysate: HEK293T
Experimental: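 IA-DTB competitive cysteine chemoproteomics in HEK293T RIPA lysate. Lysates were treated with compound 29 or 30 at 50 or 200 µM for 4 h, then IA-DTB (500 µM, 1 h), trypsin-digested, NeutrAvidin-enriched and analysed by diaPASEF. Competition ratio = intensity DMSO / intensity compound (n=4 treated, n=64 DMSO); binding: mean log2 CR ≥ 1 and p ≤ 0.05 plus QC filters. Target is the cysteine site.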

| Target | log2 mean competition ratio |
| --- | --- |
| ZNF512B C871 (UniProt Q96KM6) | -0.163 |
| ZNF318 C242 (UniProt Q5VUA4) | 0.189 |
| ZNF445 C215 (UniProt P59923) | -0.229 |
| ZNF620 C87 | 0.187 |
| ZNF398 C275 | -0.241 |
| ZNF516 C114 (UniProt Q92618) | -0.149 |
| ZNHIT1 C140 (UniProt O43257) | 0.0375 |
| ZFC3H1 C1587 (UniProt O60293) | -0.24 |
| ZC3HAV1L C7 (UniProt Q96H79) | -0.197 |
| ZC3HAV1 C272 (UniProt Q7Z2W4) | 0.0238 |
| ZNF446 C164 | 0.283 |
| ZSWIM8 C1094 (UniProt A7E2V4) | -0.352 |
| ZDBF2 C1575 | -0.0506 |
| ZMYM1 C10 (UniProt Q5SVZ6) | 0.102 |
| ZCCHC8 C157 (UniProt Q6NZY4) | -0.119 |
| ZC3H7B C940 (UniProt Q9UGR2) | 0.101 |
| ZZZ3 C643 (UniProt Q8IYH5) | -0.0512 |
| ZFAND6 C163 (UniProt Q6FIF0) | 0.0133 |

| Target | log2 mean competition ratio |
| --- | --- |
| ZFYVE16 C863 (UniProt Q7Z3T8) | -0.442 |
| ZFP91 C520 (UniProt Q96JP5) | 0.0865 |
| ZNF496 C324 | -0.126 |
| ZNF276 C136 | 0.113 |
| ZEB1 C503 (UniProt P37275) | -0.0377 |
| ZNF623 C97 | -0.181 |
| ZC3H7A C894 (UniProt Q8IWR0) | 0.279 |
| ZMYND8 C138 (UniProt Q9ULU4) | -0.0479 |
| ZNF407 C1230 (UniProt Q9C0G0) | -0.3 |
| ZFYVE16 C304 (UniProt Q7Z3T8) | 0.00173 |
| ZNF239 C138 (UniProt Q16600) | -0.393 |
| ZMYM1 C1098 (UniProt Q5SVZ6) | 0.18 |
| ZDBF2 C1937 | -0.0486 |
| ZRANB3 C587 | -0.238 |
| ZNF302 C274 | 0.115 |
| ZNF791 C311 | -0.0879 |
| ZNF644 C554 (UniProt Q9H582) | 0.166 |

same assay, conditions: 200 µM; treatment time: 4 h; cell line lysate: HEK293T

| Target | log2 mean competition ratio |
| --- | --- |
| ZNF512B C871 (UniProt Q96KM6) | 0.0465 |
| ZNF318 C242 (UniProt Q5VUA4) | 0.296 |
| ZNF445 C215 (UniProt P59923) | 0.235 |
| ZNF620 C87 | 0.148 |
| ZNF398 C275 | -0.315 |
| ZNF516 C114 (UniProt Q92618) | 0.0372 |
| ZNHIT1 C140 (UniProt O43257) | -0.148 |
| ZFC3H1 C1587 (UniProt O60293) | -0.12 |
| ZC3HAV1L C7 (UniProt Q96H79) | -0.298 |
| ZC3HAV1 C272 (UniProt Q7Z2W4) | -0.114 |
| ZNF446 C164 | 0.00498 |
| ZSWIM8 C1094 (UniProt A7E2V4) | -0.312 |
| ZDBF2 C1575 | -0.113 |
| ZMYM1 C10 (UniProt Q5SVZ6) | 0.459 |
| ZCCHC8 C157 (UniProt Q6NZY4) | -0.193 |
| ZC3H7B C940 (UniProt Q9UGR2) | 0.231 |
| ZZZ3 C643 (UniProt Q8IYH5) | -0.122 |
| ZFAND6 C163 (UniProt Q6FIF0) | 0.0225 |

| Target | log2 mean competition ratio |
| --- | --- |
| ZFYVE16 C863 (UniProt Q7Z3T8) | 0.272 |
| ZFP91 C520 (UniProt Q96JP5) | 0.191 |
| ZNF496 C324 | -0.0238 |
| ZNF276 C136 | 0.118 |
| ZEB1 C503 (UniProt P37275) | 0.248 |
| ZNF446 C33 | -0.227 |
| ZNF623 C97 | 0.52 |
| ZC3H7A C894 (UniProt Q8IWR0) | 0.0262 |
| ZMYND8 C138 (UniProt Q9ULU4) | -0.0151 |
| ZNF407 C1230 (UniProt Q9C0G0) | 0.706 |
| ZFHX4 C964 (UniProt Q86UP3) | 0.0702 |
| ZFYVE16 C304 (UniProt Q7Z3T8) | 0.0453 |
| ZMYM1 C1098 (UniProt Q5SVZ6) | 0.195 |
| ZDBF2 C1937 | -0.113 |
| ZRANB3 C587 | -0.218 |
| ZNF302 C274 | 0.193 |
| ZNF644 C554 (UniProt Q9H582) | 0.27 |
